{"source": "the supplement of paper PMC10689618", "note": "Values joined by “and” are separate entries in the source; they are usually repeats but may differ in a detail not shown here. Identical values can stand only once. Counter-ions that a name gives are not always drawn. The list shows a part of the results. Single values are uncertain, as repeats are few or missing.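 Labelled rat cortical synaptosomes were engulfed by primary human fetal astrocytes. Engulfment equaled a red/green ratio, corrected for calcein live-cell signal and normalized to the plate median. Compounds were toxic when calcein dropped over 30%, and reduced phagocytosis when below 70% of the median above 5 µM.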", "data": [{"system": "Human fetal astrocytes", "assay": "loss of total cells relative to no-compound high-control median (toxicity); higher = more toxic (fewer cells)", "details": "1.39 µM; 24 h", "units": {"loss of total cells": "%"}, "values": [{"smiles": "CCC(=O)N1CCN(C(=O)c2ccccc2)CC1", "loss of total cells": -27.2}, {"smiles": "O=C(N[C@@H](Cc1ccccc1)C(=O)CCl)OCc1ccccc1", "note": "[Z-L-Phe chloromethyl ketone]", "loss of total cells": -18}, {"smiles": "CN(C)CCCO[C@@H]1[C@H]2OC(C)(C)O[C@H]2O[C@@H]1[C@H](O)CO", "note": "[Amiprilose hydrochloride]", "loss of total cells": -26.4}]}, {"system": "Human fetal astrocytes", "assay": "loss of total cells relative to no-compound high-control median (toxicity); higher = more toxic (fewer cells)", "details": "2.78 µM; 24 h", "units": {"loss of total cells": "%"}, "values": [{"smiles": "CCC(=O)N1CCN(C(=O)c2ccccc2)CC1", "loss of total cells": -28.2}, {"smiles": "O=C(N[C@@H](Cc1ccccc1)C(=O)CCl)OCc1ccccc1", "note": "[Z-L-Phe chloromethyl ketone]", "loss of total cells": -12}, {"smiles": "CN(C)CCCO[C@@H]1[C@H]2OC(C)(C)O[C@H]2O[C@@H]1[C@H](O)CO", "note": "[Amiprilose hydrochloride]", "loss of total cells": -8.7}]}, {"system": "Human fetal astrocytes", "assay": "loss of total cells relative to no-compound high-control median (toxicity); higher = more toxic (fewer cells)", "details": "5.56 µM; 24 h", "units": {"loss of total cells": "%"}, "values": [{"smiles": "CCC(=O)N1CCN(C(=O)c2ccccc2)CC1", "loss of total cells": -30.5}, {"smiles": "O=C(N[C@@H](Cc1ccccc1)C(=O)CCl)OCc1ccccc1", "note": "[Z-L-Phe chloromethyl ketone]", "loss of total cells": -10.6}, {"smiles": "CN(C)CCCO[C@@H]1[C@H]2OC(C)(C)O[C@H]2O[C@@H]1[C@H](O)CO", "note": "[Amiprilose hydrochloride]", "loss of total cells": -9.7}]}, {"system": "Human fetal astrocytes", "assay": "loss of total cells relative to no-compound high-control median (toxicity); higher = more toxic (fewer cells)", "details": "11.11 µM; 24 h", "units": {"loss of total cells": "%"}, "values": [{"smiles": "CCC(=O)N1CCN(C(=O)c2ccccc2)CC1", "loss of total cells": -6.7}, {"smiles": "O=C(N[C@@H](Cc1ccccc1)C(=O)CCl)OCc1ccccc1", "note": "[Z-L-Phe chloromethyl ketone]", "loss of total cells": 8.5}, {"smiles": "CN(C)CCCO[C@@H]1[C@H]2OC(C)(C)O[C@H]2O[C@@H]1[C@H](O)CO", "note": "[Amiprilose hydrochloride]", "loss of total cells": -5.8}]}, {"system": "Human fetal astrocytes", "assay": "loss of total cells relative to no-compound high-control median (toxicity); higher = more toxic (fewer cells)", "details": "22.22 µM; 24 h", "units": {"loss of total cells": "%"}, "values": [{"smiles": "CCC(=O)N1CCN(C(=O)c2ccccc2)CC1", "loss of total cells": 0}, {"smiles": "O=C(N[C@@H](Cc1ccccc1)C(=O)CCl)OCc1ccccc1", "note": "[Z-L-Phe chloromethyl ketone]", "loss of total cells": 59.8}, {"smiles": "CN(C)CCCO[C@@H]1[C@H]2OC(C)(C)O[C@H]2O[C@@H]1[C@H](O)CO", "note": "[Amiprilose hydrochloride]", "loss of total cells": -4.9}]}, {"system": "Human fetal astrocytes", "assay": "loss of total cells relative to no-compound high-control median (toxicity); higher = more toxic (fewer cells)", "details": "1.39 µM; 24 h", "remark": "another data set of the same source", "values": [{"smiles": "C[C@@H]1C[C@H]2[C@@H]3C[C@H](F)C4=CC(=O)C=C[C@]4(C)[C@@]3(F)[C@@H](O)C[C@]2(C)[C@@]1(O)C(=O)CO", "loss of total cells": "-10.8%"}, {"smiles": "Nc1[nH]cnc2ncnc1-2", "loss of total cells": "1.5%"}, {"smiles": "COc1ccc2c(c1)OC[C@@H](Cc1ccc(OC)c(OC)c1)[C@H]2O", "loss of total cells": "10.5%"}, {"smiles": "O=C1N=C(O)NC1(c1ccccc1)c1ccccc1", "loss of total cells": "-25.7%"}, {"smiles": "CC[C@H](C)C(=O)O[C@H]1C[C@H](O)C=C2C=C[C@H](C)[C@H](CC[C@@H](O)C[C@@H](O)CC(=O)O)[C@H]21", "loss of total cells": "-11.6%"}, {"smiles": "CO/N=C(\\C(=O)N[C@@H]1C(=O)N2C(C(=O)O)=C(COC(C)=O)CS[C@H]12)c1csc(N)n1", "loss of total cells": "-48.1%"}, {"smiles": "CC1(C)[C@@H](O)CC[C@]2(C)[C@H]3C(=O)C=C4[C@@H]5C[C@@](C)(C(=O)O)CC[C@]5(C)CC[C@@]4(C)[C@]3(C)CC[C@@H]12", "loss of total cells": "-1.8%"}, {"smiles": "Nc1c2ccccc2nc2ccccc12", "loss of total cells": "0.9%"}, {"smiles": "O=C(CCBr)N1CCN(C(=O)CCBr)CC1", "loss of total cells": "-25.8%"}, {"smiles": "CCC(CCC(C)C1CCC2C3CCC4CC(O)CCC4(C)C3CCC12C)C(C)C", "note": "(stereo unspecified)", "loss of total cells": "-8.2%"}, {"smiles": "OCC(S)CS", "note": "(stereo unspecified)", "loss of total cells": "31.5%"}, {"smiles": "O=C(O)CCCC[C@@H]1SC[C@@H]2NC(=O)N[C@@H]21", "loss of total cells": "-39.5%"}, {"smiles": "CC(=O)c1cc2ccccc2oc1=O", "loss of total cells": "18.4%"}, {"smiles": "CCCCCC(=O)O[C@]1(C(C)=O)CC[C@H]2[C@@H]3CCC4=CC(=O)CC[C@]4(C)[C@H]3CC[C@@]21C", "loss of total cells": "17.5%"}, {"smiles": "CNCc1ccccc1", "loss of total cells": "-8.2%"}, {"smiles": "C[C@H](CCC(=O)O)[C@H]1CC[C@H]2[C@@H]3[C@@H](O)C[C@@H]4C[C@H](O)CC[C@]4(C)[C@H]3CC[C@]12C", "loss of total cells": "-4.5%"}, {"smiles": "CCCCCCCCCCCCC[N+](C)(C)Cc1ccccc1", "loss of total cells": "-24.2%"}, {"smiles": "CCOC(=O)[C@H](CCc1ccccc1)N[C@@H](C)C(=O)N1Cc2ccccc2C[C@H]1C(=O)O", "loss of total cells": "-25%"}, {"smiles": "CN1CCC(=C2c3ccccc3Sc3ccccc32)CC1", "loss of total cells": "19.9%"}, {"smiles": "COc1cc2c(cc1OC)-c1cc3ccc(OC)c(OC)c3c[n+]1CC2", "loss of total cells": "11.2% and -11.2%"}, {"smiles": "CCOC(=O)CCC(=O)O[C@H]1[C@H](O[C@@H]2[C@@H](C)[C@H](O[C@H]3C[C@@](C)(OC)[C@@H](O)[C@H](C)O3)[C@@H](C)C(=O)O[C@H](CC)[C@@](C)(O)[C@H](O)[C@@H](C)C(=O)[C@H](C)C[C@@]2(C)O)O[C@H](C)C[C@@H]1N(C)C", "loss of total cells": "-0.3%"}, {"smiles": "Cc1cc(=O)n(-c2ccccc2)n1C", "loss of total cells": "2.5%"}, {"smiles": "NNC(=O)c1ccncc1.Nc1ccc(C(=O)O)c(O)c1", "loss of total cells": "10.5%"}, {"smiles": "NC(=O)c1ccccc1O", "loss of total cells": "13.4%"}, {"smiles": "O=C(N/N=C/c1ccc([N+](=O)[O-])o1)c1ccc(O)cc1", "loss of total cells": "17%"}, {"smiles": "Clc1ccccc1C(c1ccccc1)(c1ccccc1)n1ccnc1", "note": "[Clotrimazole]", "loss of total cells": "3.3%"}, {"smiles": "O=C1CN2Cc3c(ccc(Cl)c3Cl)N=C2N1", "loss of total cells": "-31.5%"}, {"smiles": "CC(C)CCCCC(=O)N[C@@H](CCN)C(=O)N[C@@H](CN[C@@H](CCN)C(=O)N[C@H]1CCNC(=O)[C@H]([C@@H](C)O)NC(=O)[C@H](CCN)NC(=O)[C@H](CCN)NC(=O)[C@H](CC(C)C)NC(=O)[C@@H](CC(C)C)NC(=O)[C@H](CCN)NC1=O)[C@@H](C)O.CCC(C)CCCCC(=O)N[C@@H](CCN)C(=O)N[C@@H](CN[C@@H](CCN)C(=O)N[C@H]1CCNC(=O)[C@H]([C@@H](C)O)NC(=O)[C@H](CCN)NC(=O)[C@H](CCN)NC(=O)[C@H](CC(C)C)NC(=O)[C@@H](CC(C)C)NC(=O)[C@H](CCN)NC1=O)[C@@H](C)O", "note": "(stereo partly specified)", "loss of total cells": "-16.3%"}, {"smiles": "CC(=O)O[C@H]1CC[C@]2(C)[C@H]3CC[C@@]4(C)[C@H](c5ccoc5)OC(=O)[C@H]5O[C@]54[C@]3(C)[C@H](OC(C)=O)C[C@H]2C1(C)C", "note": "[3beta-ACETOXYDEOXODIHYDROGEDUNIN]", "loss of total cells": "-6.9%"}, {"smiles": "C#C[C@]1(OC(C)=O)CC[C@H]2[C@@H]3CCC4=CC(=O)CC[C@@H]4[C@H]3CC[C@@]21C", "loss of total cells": "0.3%"}, {"smiles": "Cc1c(Nc2ncccc2C(=O)O)cccc1C(F)(F)F", "loss of total cells": "-27.4%"}, {"smiles": "CNCCc1ccccn1", "loss of total cells": "14.5%"}, {"smiles": "COc1cc(C(=O)NCCCCCC(=O)O)cc(OC)c1OC", "loss of total cells": "12.9%"}, {"smiles": "C[C@H]1O[C@@H](O[C@H]2[C@@H](O)C[C@H](O[C@H]3[C@@H](O)C[C@H](O[C@H]4CC[C@@]5(C)[C@H](CC[C@@H]6[C@@H]5CC[C@]5(C)[C@@H](C7=CC(=O)OC7)CC[C@]65O)C4)O[C@@H]3C)O[C@@H]2C)C[C@H](O)[C@@H]1O", "loss of total cells": "43%"}, {"smiles": "C=C1C[C@]23C[C@@]1(O)CC[C@H]2[C@@]12C=C[C@H](O)[C@@](C)(C(=O)O1)[C@H]2[C@@H]3C(=O)O", "loss of total cells": "-3.3%"}, {"smiles": "COc1cc(-c2cc(=O)c3c(O)c(OC)c(OC)c(OC)c3o2)cc(OC)c1OC", "loss of total cells": "-16.4%"}]}]}
